No constants are given. Whether binding was seen depends on the method and setting. Binding seen in cells or lysates may run through a third protein. Some results given as binding are weak or reduced against the parent protein; the word gives no strength. For some assays here: Where a sequence is shown, tags or fusion partners need not be part of it.

Sequences of proteins named here, by UniProt entry; tags and fusion partners are left off. A change or cut given only in a name is not applied to a line headed by its entry.
UniProt Q07065, whole entry: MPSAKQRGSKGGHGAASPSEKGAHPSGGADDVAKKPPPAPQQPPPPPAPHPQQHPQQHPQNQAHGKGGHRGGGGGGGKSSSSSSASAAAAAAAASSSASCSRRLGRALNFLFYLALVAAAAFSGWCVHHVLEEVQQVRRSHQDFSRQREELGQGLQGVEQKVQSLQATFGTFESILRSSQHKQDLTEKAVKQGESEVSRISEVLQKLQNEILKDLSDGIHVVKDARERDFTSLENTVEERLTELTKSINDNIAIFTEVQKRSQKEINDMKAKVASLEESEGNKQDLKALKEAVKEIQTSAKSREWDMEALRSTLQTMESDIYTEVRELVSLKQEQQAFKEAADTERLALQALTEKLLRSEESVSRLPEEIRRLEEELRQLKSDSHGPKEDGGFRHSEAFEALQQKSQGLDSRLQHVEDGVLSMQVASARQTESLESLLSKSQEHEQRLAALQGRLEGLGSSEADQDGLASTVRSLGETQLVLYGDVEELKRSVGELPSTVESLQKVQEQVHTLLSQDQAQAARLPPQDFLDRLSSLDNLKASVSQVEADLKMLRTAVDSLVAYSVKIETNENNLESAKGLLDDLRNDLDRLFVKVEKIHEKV

Holding throughout (assay): co-IP
The target in one assay is T1, RHBDL4 (endogenous) (UniProt Q8TEB9).
T1 sequence: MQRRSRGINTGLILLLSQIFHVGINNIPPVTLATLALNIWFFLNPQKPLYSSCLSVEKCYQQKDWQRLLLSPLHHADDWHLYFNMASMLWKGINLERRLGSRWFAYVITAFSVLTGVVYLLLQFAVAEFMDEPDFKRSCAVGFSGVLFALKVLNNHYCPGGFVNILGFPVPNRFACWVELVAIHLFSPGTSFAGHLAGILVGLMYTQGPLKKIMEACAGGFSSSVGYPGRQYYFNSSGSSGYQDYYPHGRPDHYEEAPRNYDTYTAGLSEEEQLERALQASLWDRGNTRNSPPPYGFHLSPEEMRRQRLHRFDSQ

The target in a further assay is T2, RHBDL4 HA (UniProt Q8TEB9).
T2 sequence: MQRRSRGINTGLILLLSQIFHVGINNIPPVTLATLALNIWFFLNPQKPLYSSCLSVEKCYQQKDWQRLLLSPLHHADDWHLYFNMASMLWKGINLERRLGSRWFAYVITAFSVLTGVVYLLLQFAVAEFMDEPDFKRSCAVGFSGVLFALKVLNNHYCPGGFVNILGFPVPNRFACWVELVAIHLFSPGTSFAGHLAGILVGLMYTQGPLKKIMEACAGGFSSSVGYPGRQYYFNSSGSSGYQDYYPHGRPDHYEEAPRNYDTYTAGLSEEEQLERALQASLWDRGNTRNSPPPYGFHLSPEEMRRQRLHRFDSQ

The next assay deals with CLIMP-63 HA (UniProt Q07065).
A further assay has as its target CLIMP-63 Myc (UniProt Q07065).

As for “CLIMP-63 (endogenous) (from UniProt Q07065 1-602)”, the binding entry with RHBDL4 (endogenous) is recorded as “binds”.
Take “CLIMP-63 Myc (from UniProt Q07065 1-602)”: in the assay with RHBDL4 HA, the binding result is reported as “binds”.

B1: RHBDL4 Myc (enzyme, UniProt Q8TEB9 1-315)
chain: MQRRSRGINTGLILLLSQIFHVGINNIPPVTLATLALNIWFFLNPQKPLYSSCLSVEKCYQQKDWQRLLLSPLHHADDWHLYFNMASMLWKGINLERRLGSRWFAYVITAFSVLTGVVYLLLQFAVAEFMDEPDFKRSCAVGFSGVLFALKVLNNHYCPGGFVNILGFPVPNRFACWVELVAIHLFSPGTSFAGHLAGILVGLMYTQGPLKKIMEACAGGFSSSVGYPGRQYYFNSSGSSGYQDYYPHGRPDHYEEAPRNYDTYTAGLSEEEQLERALQASLWDRGNTRNSPPPYGFHLSPEEMRRQRLHRFDSQ
On to B1, for which the binding entry in the assay with CLIMP-63 HA is given as “binds”.

B2: RHBDL4 HA (enzyme, UniProt Q8TEB9 1-315)
chain: MQRRSRGINTGLILLLSQIFHVGINNIPPVTLATLALNIWFFLNPQKPLYSSCLSVEKCYQQKDWQRLLLSPLHHADDWHLYFNMASMLWKGINLERRLGSRWFAYVITAFSVLTGVVYLLLQFAVAEFMDEPDFKRSCAVGFSGVLFALKVLNNHYCPGGFVNILGFPVPNRFACWVELVAIHLFSPGTSFAGHLAGILVGLMYTQGPLKKIMEACAGGFSSSVGYPGRQYYFNSSGSSGYQDYYPHGRPDHYEEAPRNYDTYTAGLSEEEQLERALQASLWDRGNTRNSPPPYGFHLSPEEMRRQRLHRFDSQ
For B2, the binding entry with CLIMP-63 Myc is “binds”.

B3: RHBDL4 S144A (enzyme, UniProt Q8TEB9 1-315)
chain: MQRRSRGINTGLILLLSQIFHVGINNIPPVTLATLALNIWFFLNPQKPLYSSCLSVEKCYQQKDWQRLLLSPLHHADDWHLYFNMASMLWKGINLERRLGSRWFAYVITAFSVLTGVVYLLLQFAVAEFMDEPDFKRSCAVGFAGVLFALKVLNNHYCPGGFVNILGFPVPNRFACWVELVAIHLFSPGTSFAGHLAGILVGLMYTQGPLKKIMEACAGGFSSSVGYPGRQYYFNSSGSSGYQDYYPHGRPDHYEEAPRNYDTYTAGLSEEEQLERALQASLWDRGNTRNSPPPYGFHLSPEEMRRQRLHRFDSQ
On to B3, for which the binding entry in the assay with CLIMP-63 Myc is given as “binds”.

The values are drawn from doi:10.1101/2021.06.15.448480.
